Results: publication PMC12431657, “Discovery and mechanistic insights of dibenzoylmethane as a broad spectrum inhibitor of coronavirus” (PLOS Pathogens, 2025)
Where a name gives a salt, the structure may show the parent alone. Read-outs that look alike come from different tables or passages of the source. The campaign covered roughly 3,300 compounds. About 60 (2%) showed an effect of 50% or more. This is one part of the list.

System: HCoV-OC43
Design: species or system RD; HTS, protection from HCoV-OC43 induced cell death, luminescent cell viability (CellCounting-Lite 2.0), inhibition rate
Details: 24 h post infection, 1 h compound pre-incubation, 10 µM, inhibitor

Structure (SMILES) | OC43 Inhibition rate [%] | OC43 Inhibition rate (OC43 Inhibition rate, 24 h) [%]
C[C@H]1[C@H](C)CC[C@]2(C(=O)O)CC[C@]3(C)C(=CC[C@@H]4[C@@]5(C)CC[C@H](O)C(C)(C)[C@@H]5CC[C@]43C)[C@H]12 [Ursolic acid] | -1.2 | 
O=C(O)[C@@H]1C[C@@H](O)CN1 [L-Hydroxyproline,BioReagent, suitable for cell culture] | 1.3 | 
C[Se]C[C@H](N)C(=O)O [Se-Methylselenocysteine] | -3.8 | 
CN[C@H](CC(C)C)C(=O)N[C@H]1C(=O)N[C@@H](CC(N)=O)C(=O)N[C@H]2C(=O)N[C@H]3C(=O)N[C@H](C(=O)N[C@H](C(=O)O)c4cc(O)cc(O)c4-c4cc3ccc4O)[C@H](O)c3ccc(c(Cl)c3)Oc3cc2cc(c3O[C@@H]2O[C@H](CO)[C@@H](O)[C@H](O)[C@H]2O[C@H]2C[C@](C)(N)[C@H](O)[C@H](C)O2)Oc2ccc(cc2Cl)[C@H]1O [Vancomycin (hydrochloride)] |  | -4
C[C@H](CCC(=O)O)[C@H]1CC[C@H]2[C@@H]3[C@H](O)C[C@@H]4CC(=O)CC[C@]4(C)[C@H]3C[C@H](O)[C@]12C [3-Oxocholic acid] | 0.1 | 
COc1cc(O)cc(/C=C/c2ccc(O)cc2)c1 [Pinostilbene] | -0.3 | 
C[S@@+]([O-])CCCCN=C=S [(R)-sulforaphane] | 71.2 | 
Nc1nc(O)c2[nH]nnc2n1 [8-Azaguanine] | 54.4 | 
O=C1CC(C(=O)O)c2c1oc(=O)c1cc(O)c(O)c(O)c21 (centres unmarked) [Brevifolincarboxylic acid] | -0.7 | 
NCCCCCC(=O)O [6-Aminocaproic acid] | 0.9 | 
CCCCCCCCCCCCCCCCCCCCCC(=O)O [Docosanoic acid] | -0.1 | 
C[C@H](O)[C@@H](O)[C@@H](O)[C@H](O)C=O [(-)-Fucose] | 0.3 | 
COc1cc([C@H]2Oc3ccc([C@H]4Oc5cc(O)cc(O)c5C(=O)[C@@H]4O)cc3O[C@@H]2CO)ccc1O [Isosilybin A] | 16.2 | 
O=C(/C=C/c1ccc(O)cc1)NCCc1c[nH]c2ccc(O)cc12 [N-(p-Coumaroyl) Serotonin] | 10.1 | 
O[C@@H]1[C@@H](O)[C@H](OC/C=C/c2ccccc2)O[C@H](CO[C@@H]2OC[C@H](O)[C@H](O)[C@H]2O)[C@H]1O [Rosavin] | -1.2 | 
CCCCCCCCCCC(=O)OC [Methyl undecanoate] | -0.4 | 
CC1=CCCC(C)(C)[C@H]1/C=C/C(C)=C/C=C/C(C)=C/C=C/C=C(C)/C=C/C=C(C)/C=C/C1=C(C)CCCC1(C)C [α-Carotene] | 19.1 | 
NC(=O)C[C@H](N)C(=O)O [L-Asparagine] | -3 | 
C[C@@H]1O[C@@H](O[C@H]2[C@H](O)[C@@H](O)[C@H](OC[C@H]3O[C@@H](OC(=O)[C@]45CCC(C)(C)C[C@H]4C4=CC[C@@H]6[C@@]7(C)CC[C@H](O[C@@H]8OC[C@H](O)[C@H](O)[C@H]8O)[C@@](C)(CO)[C@@H]7CC[C@@]6(C)[C@]4(C)CC5)[C@H](O)[C@@H](O)[C@@H]3O)O[C@@H]2CO)[C@H](O)[C@H](O)[C@H]1O [Hederacoside D] |  | 0.3

A section from the list above, for reference:
Structure (SMILES) | OC43 Inhibition rate [%] | OC43 Inhibition rate (OC43 Inhibition rate, 24 h) [%]
NCCCCCC(=O)O [6-Aminocaproic acid] | 0.9 | 
CCCCCCCCCCCCCCCCCCCCCC(=O)O [Docosanoic acid] | -0.1 | 
C[C@H](O)[C@@H](O)[C@@H](O)[C@H](O)C=O [(-)-Fucose] | 0.3 | 
COc1cc([C@H]2Oc3ccc([C@H]4Oc5cc(O)cc(O)c5C(=O)[C@@H]4O)cc3O[C@@H]2CO)ccc1O [Isosilybin A] | 16.2 | 

(next part)

Structure (SMILES) | OC43 Inhibition rate [%] | OC43 Inhibition rate (OC43 Inhibition rate, 24 h) [%]
CC(C)=CCC[C@](C)(O[C@@H]1O[C@H](CO[C@@H]2OC[C@H](O)[C@H](O)[C@H]2O)[C@@H](O)[C@H](O)[C@H]1O)[C@H]1CC[C@]2(C)[C@@H]1[C@H](O)C[C@@H]1[C@@]3(C)CC[C@H](O[C@@H]4O[C@H](CO)[C@@H](O)[C@H](O)[C@H]4O[C@@H]4O[C@H](CO)[C@@H](O)[C@H](O)[C@H]4O)C(C)(C)[C@@H]3CC[C@]12C [Ginsenoside Rb2] | -0.7 | 
C/C=C(\C)C(=O)O[C@@H]1c2cc(OC)c(OC)c(OC)c2-c2c(cc3c(c2OC)OCO3)C[C@H](C)[C@@]1(C)O [Tigloylgomisin P] | 1.1 | 
COc1cc2oc(=O)ccc2c(OC)c1C[C@@H](O)C(C)(C)O [Toddalolactone] | -0.5 | 
Cc1ncc(CO)c(C=O)c1O [Pyridoxal hydrochloride] | 0 | 
COc1ccc(-c2cc(=O)c3c(OC)c(OC)c(OC)cc3o2)cc1 [Scutellarein tetramethyl ether] | 22.2 | 
Nc1ccn([C@H]2C[C@H](O)[C@@H](CO)O2)c(=O)n1 [2'-Deoxycytidine] | 4.5 | 
O=C(O)CC(=O)C(=O)O [Oxaloacetic acid] | 6 | 
O=C(O)/C=C/c1cccc(O)c1 [(E)-m-Coumaric acid] | -0.6 | 
CC(C)C[C@H]1C(=O)O[C@H](Cc2ccccc2)C(=O)N(C)[C@@H](CC(C)C)C(=O)O[C@H](C)C(=O)N(C)[C@@H](CC(C)C)C(=O)O[C@H](Cc2ccccc2)C(=O)N(C)[C@@H](CC(C)C)C(=O)O[C@H](C)C(=O)N1C [PF 1022A] | -3.6 | 
COC(=O)C1=C(O)c2ccccc2C(=O)[C@]1(CC=C(C)C)C1=CC(=O)c2ccccc2C1=O [Rubipodanone A] | 58.8 | 
C=C1[C@H](O)C[C@H]2[C@@H](/C=C(/C)C(=O)[C@@]3(O)C[C@H](C)[C@H](O)[C@@H]3[C@H]1O)C2(C)C [7beta-Hydroxylathyrol] | -0.4 | 
COc1cc2c(cc1OC)OC(C)(C)C=C2 [Precocene II] | 1.2 | 
CC(C)CCC[C@@H](C)[C@H]1CC[C@H]2[C@@H]3CCC4=CC(=O)CC[C@]4(C)[C@H]3CC[C@]12C [Cholestenone] | -0.3 | 
CC(C)=CCc1c(O)ccc(-c2coc3cc(O)cc(O)c3c2=O)c1O [Licoisoflavone A] | 59.7 | 
C/C=C/C[C@@H](C)[C@@H](O)[C@H]1C(=O)N[C@@H](C(C)C)C(=O)N(C)CC(=O)N(C)[C@@H](CC(C)C)C(=O)N[C@@H](C(C)C)C(=O)N(C)[C@@H](CC(C)C)C(=O)N[C@@H](C)C(=O)N[C@H](C)C(=O)N(C)[C@@H](CC(C)C)C(=O)N(C)[C@@H](CC(C)C)C(=O)N(C)[C@@H](C(C)C)C(=O)N1C [Cyclosporin D] | 68 | 
Oc1ccc(CCc2cc(O)cc(O)c2)cc1 [Dihydroresveratrol] | -6.5 | 
CCCCCCCC(=O)OCC(COC(=O)CCCCCCC)OC(=O)CCCCCCC [Tricaprilin] | 0 | 
CO[C@H]1C[C@H](O[C@H]2CC[C@]3(C)[C@H]4CC[C@]5(C)[C@@H](C6=CC(=O)OC6)CC[C@]5(O)[C@@H]4CC[C@]3(O)C2)O[C@H](C)[C@H]1O [Periplocymarin] | 3.9 | 
C[N+](C)(C)CCCC(=O)O [(3-Carboxypropyl)trimethylammonium chloride] | -0.8 | 

Structure (SMILES) | OC43 Inhibition rate [%] | OC43 Inhibition rate (OC43 Inhibition rate, 24 h) [%]
COC(=O)[C@]12CCC(C)(C)C[C@H]1C1=CC[C@@H]3[C@@]4(C)CCC(=O)C(C)(C)[C@@H]4CC[C@@]3(C)[C@]1(C)CC2 [Methyl oleanonate] | -0.1 | 
C=C1C(=O)O[C@@H]2C[C@@]3(C)CCCC(=C)[C@@H]3C[C@H]12 [Isoalantolactone] | 0.9 | 
C[C@@H]1O[C@@H](Oc2c(-c3ccc(O)cc3)oc3cc(O)cc(O)c3c2=O)[C@H](O)[C@H](O)[C@H]1O [Afzelin] | 8.7 | 
C/C=C/C(=O)O [NSC 8751] | -2.6 | 
NC(Cn1ccc(=O)c(O)c1)C(=O)O (centres unmarked) [Mimosine] | -6.4 | 
COc1ccc(/C=C/c2cc(O)cc(O[C@@H]3O[C@H](CO)[C@@H](O)[C@H](O)[C@H]3O)c2)cc1 [Desoxyrhaponticin] | 0.6 | 
CCCCCCCCCCCCCC(=O)OC[C@@H](O)COP(=O)([O-])OCC[N+](C)(C)C [LysoPC(14:0/0:0)] | -0.2 | 
CC(CC(=O)O)C(=O)O (centres unmarked) [2-Methylsuccinic acid] | 0.4 | 
CC(C)=CCC/C(C)=C/Cc1cc(-c2coc3cc(O)ccc3c2=O)ccc1O [Corylifol A] | -2.2 | 
COc1ccc(C(=O)/C=C/c2ccc(O)cc2)c(O)c1CC=C(C)C [4-Hydroxyderricin] | 2 | 
O=C(O)C(O)c1cccc(O)c1 (centres unmarked) [3-Hydroxymandelic Acid] | -0.1 | 
CC12CCC(C1)C(C)(C)C2O (centres unmarked) [Fenchyl alcohol] | -5.1 | 
CC(C)=CCC[C@@](C)(O)[C@H]1CC[C@]2(C)[C@@H]1[C@H](O)C[C@@H]1[C@@]3(C)CC[C@H](O)C(C)(C)[C@@H]3[C@@H](O[C@@H]3O[C@H](CO)[C@@H](O)[C@H](O)[C@H]3O[C@@H]3O[C@@H](C)[C@H](O)[C@@H](O)[C@H]3O)C[C@]12C [20(R)-Ginsenoside Rg2] | 8.8 | 
CNC(=O)c1cccnc1 [N-Methylnicotinamide] | 0.5 | 
CC(C)=CCc1cc([C@@H]2CC(=O)c3ccc(O)c(CC=C(C)C)c3O2)ccc1O [Glabrol] | 55.6 | 
O=C(/C=C/c1ccc(O)c(O)c1)O[C@@H]1C[C@@](O)(C(=O)O)C[C@@H](O)[C@@H]1O [Neochlorogenic acid] | -0.4 | 
CC(C)(O)CCC(=O)[C@](C)(O)C1[C@H](O)C[C@@]2(C)[C@@H]3CC=C4[C@@H](C[C@H](O)[C@@H](O)C4(C)C)[C@]3(C)C(=O)C[C@]12C (some centres unmarked) [Cucurbitacin IIb] | -0.5 | 
C[C@]12CCC(=O)C=C1CC[C@@H]1[C@@H]2CC[C@@]2(C)[C@H]1CC[C@]2(O)C(=O)CO [Cortodoxone] | 1.1 | 
